Measured values: US11980211B2, “Verbascoside and related compounds for sweetness enhancement” (International Flavors & Fragrances Inc., priority 2018, dated 2024)

Test: Taste and smell of verbascoside and isoverbascoside solutions alone
Experimental: A sucrose solution (4%) was prepared in water. Each of verbascoside and isoverbascoside solutions of different concentrations was prepared in ethanol solution in water (50%). Verbascoside and isoverbascoside were evaluated at 1 and 200 ppm, respectively.

Structure (SMILES)	taste and smell (compound alone at 200 ppm)	taste and smell (compound alone at 1 ppm)
CC1OC(OC2C(O)C(COC(=O)/C=C/c3ccc(O)c(O)c3)OC(OCCc3ccc(O)c(O)c3)C2O)C(O)C(O)C1O (centres unmarked) [Isoverbascoside, isoverbascoside]	devoid of taste and smell	–
CC1OC(OC2C(O)C(OCCc3ccc(O)c(O)c3)OC(CO)C2OC(=O)/C=C/c2ccc(O)c(O)c2)C(O)C(O)C1O [Verbascoside, (E)-2-(3,4-dihydroxyphenyl)ethyl 3-O-(6-deoxy-α-L-mannopyranosyl)-4-[3-(3,4-dihydroxyphenyl)-2-propenoate]-β-D-Glucopyranoside]	–	devoid of taste and smell
